No constants are given. Whether binding was seen depends on the method and setting. Binding seen in cells or lysates may run through a third protein. A result given as binding can be weak or reduced; the word gives no strength.

By UniProt entry, the sequences of proteins in these tests, tags left out. Where a name states a change or a piece, a line headed by the entry shows the natural chain unless it says otherwise.
UniProt P15907: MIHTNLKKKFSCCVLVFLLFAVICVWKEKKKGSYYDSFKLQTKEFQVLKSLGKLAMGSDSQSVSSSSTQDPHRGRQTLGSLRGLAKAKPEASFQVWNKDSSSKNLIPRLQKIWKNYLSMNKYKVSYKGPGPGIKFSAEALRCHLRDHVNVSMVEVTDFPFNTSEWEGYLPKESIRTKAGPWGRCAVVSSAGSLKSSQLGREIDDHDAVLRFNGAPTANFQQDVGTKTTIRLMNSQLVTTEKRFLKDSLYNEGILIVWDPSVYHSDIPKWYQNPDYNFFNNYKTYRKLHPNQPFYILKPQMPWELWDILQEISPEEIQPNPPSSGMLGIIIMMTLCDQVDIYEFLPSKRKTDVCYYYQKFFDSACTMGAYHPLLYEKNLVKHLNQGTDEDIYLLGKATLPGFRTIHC

The assay has as its target T1, β1,4-galactosyltransferase B4GalT-I (UniProt P15291).
T1 sequence: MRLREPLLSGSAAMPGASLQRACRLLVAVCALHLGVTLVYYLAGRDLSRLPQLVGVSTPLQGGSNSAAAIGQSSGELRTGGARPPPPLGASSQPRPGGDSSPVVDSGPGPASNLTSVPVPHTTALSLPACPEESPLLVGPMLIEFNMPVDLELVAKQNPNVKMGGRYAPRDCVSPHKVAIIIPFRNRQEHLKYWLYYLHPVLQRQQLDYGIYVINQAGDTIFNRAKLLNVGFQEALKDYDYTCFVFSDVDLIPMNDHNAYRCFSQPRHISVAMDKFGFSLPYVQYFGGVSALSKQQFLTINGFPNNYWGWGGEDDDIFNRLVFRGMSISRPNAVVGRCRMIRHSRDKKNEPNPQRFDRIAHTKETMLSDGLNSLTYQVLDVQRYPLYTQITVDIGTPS
The experiment in a line: FRET or BRET; mVenus- and mCherry-tagged enzyme constructs co-transfected in COS-7 cells, fixed with 4% PFA, FRET quantified by high content imaging (Operetta); normoxic cells as the reference (100%); cells also compared after moderate hypoxia (5% O2, 4-24 h) or 3-10 mM DTT; mutants given as percent of wild type.

As to “ST6Gal-I cysteine mutant C24S (from UniProt P15907) (enzyme)”, the binding result is reported as “binds”.

Source of the values: paper PMC6454061.
